The other results are listed elsewhere or left out.

Chains of the proteins cited; added tags and fusions are not shown.
UniProt Q0JBA9, entry or part of it: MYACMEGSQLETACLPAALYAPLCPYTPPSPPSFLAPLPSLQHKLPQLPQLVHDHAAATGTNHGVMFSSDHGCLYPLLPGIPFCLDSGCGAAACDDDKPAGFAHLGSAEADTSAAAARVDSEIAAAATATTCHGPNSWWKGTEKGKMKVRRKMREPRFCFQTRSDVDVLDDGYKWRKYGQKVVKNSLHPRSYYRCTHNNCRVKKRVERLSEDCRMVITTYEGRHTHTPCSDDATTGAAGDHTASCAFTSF

The target in the test is OsWRKY34 (Oryza sativa, UniProt Q0JBA9 1-250). As to the kind of experiment: protein-binding microarray (RPBM); PBS, 2% BSA, 51.3 ng/ul salmon testes DNA, 50 uM zinc acetate, 200 nM TF, 25 C, 1 h; high values mean tight binding. To be noted: protein: recombinant; tags: N-terminal polyhistidine and DsRed monomer fusion (pET32a); label: CyDye5-dUTP incorporated in the synthesized complementary strand; 3' TTTTT single-stranded linker to array surface; dsDNA, one strand shown. The gist of the method:
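An Axon 4000B scanner gave the binding signal as per-feature fluorescence intensity in arbitrary units. This followed washing of a custom Agilent array that had been incubated for 1 h at 25 °C with 200 nM protein in PBS, 2% BSA, salmon testes DNA and 50 µM zinc acetate. The proteins were transcription factors fused at the N-terminus to polyhistidine and DsRed, expressed in E. coli BL21-CodonPlus and purified on Ni–NTA.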
For “GACTGGGAATGGATTTTGTGTTTATTGACACTTCAGCTTACGGAGTCACCTAGTGCAG”, the binding signal is 8040 fluorescence intensity (a.u.). As for “CTTTTTATTTTCTTTTAGTGAAAACTATCGTTTTTATTTTCGGAGTCACCTAGTGCAG”, the binding signal is 9310 fluorescence intensity (a.u.).

For “ATCACCACACCACCCTGTATATTCCTCCTCTTCTTCTTCCCGGAGTCACCTAGTGCAG”, the binding signal is 8400 fluorescence intensity (a.u.).

Consider “GGCGGATTTCGGTTTCTTCGTGTGTTTGTTGGTTGCGTTGCGGAGTCACCTAGTGCAG”, for which the binding signal is 12700 fluorescence intensity (a.u.). Next, “TGCATCTGTGGAACATCATTGTATATCATGCTCATGTATGCGGAGTCACCTAGTGCAG”: 10100 fluorescence intensity (a.u.); “GGGATTTAGCTGTTGGTGTAGTGGGTGGAAGGCTAGAAGGCGGAGTCACCTAGTGCAG”: 8820 fluorescence intensity (a.u.).

For the sequence “GGAACCCGTGCTACATGCCTACTAGTACACACTTGCATCACGGAGTCACCTAGTGCAG”, the binding signal is 9720 fluorescence intensity (a.u.).

As to “CCAAACCTACACGTCCCAGTTCAGTCATTCATCCTGCTAGCGGAGTCACCTAGTGCAG”, the binding signal is 9110 fluorescence intensity (a.u.). For “CCGCCGCCGTGAACTCGCCGTTCTTCCCGCCGCCGTCCTCCGGAGTCACCTAGTGCAG”, the binding signal was 9080 fluorescence intensity (a.u.).

Take “TCCCTTCCTGGCGCTGTCAGCTTGTGGGGTCGGGATGTCACGGAGTCACCTAGTGCAG”: the binding signal is 8340 fluorescence intensity (a.u.).

For “CTCTTTCCTCTCCTTTCCGTCGCGCTGTTCGCTGCCTACACGGAGTCACCTAGTGCAG”, the binding signal was 8860 fluorescence intensity (a.u.). As to “CTCTCACTCGATTTTCTCACTCAAATTTACAGTGCATTTTCGGAGTCACCTAGTGCAG”, the binding signal was 8350 fluorescence intensity (a.u.).

As for “ACTCCCGGCTAATAACATTAATCATCGCCAGTTTGATCTTCGGAGTCACCTAGTGCAG”, the binding signal is 8260 fluorescence intensity (a.u.). On to “TGCAGGCTTCCACCGCCCGCCTGTCATTGTCGCCCACTGCCGGAGTCACCTAGTGCAG”, for which the binding signal is 8760 fluorescence intensity (a.u.). Regarding “ACTACATCCGTCCCAAAATAATTGTAATTCTCTGTTGTTTCGGAGTCACCTAGTGCAG”, the binding signal was 9570 fluorescence intensity (a.u.). On to “TCTCCATGCTACCTTTGCTTGTCCTCCGTCGCTGGTGAAGCGGAGTCACCTAGTGCAG”, for which the binding signal is 11000 fluorescence intensity (a.u.). “GACGGTGGCCATTCTAATTCCTCTATTGCAGGGTCTAACTCGGAGTCACCTAGTGCAG”: the binding signal was 8310 fluorescence intensity (a.u.).

Turning to “TCTTCTTCGTCTAATGGTCACACGGCATCGTTTTCGCTCGCGGAGTCACCTAGTGCAG”, the binding signal is 8250 fluorescence intensity (a.u.). Take “TCTATGCGTGGGCCCTGGTTTTCTTTGATTTCACCTACAGCGGAGTCACCTAGTGCAG”: the binding signal is 8450 fluorescence intensity (a.u.). The result for “CGGGCCATATGTGACTCGAGCTCAAGTGTTTCTGCCATTTCGGAGTCACCTAGTGCAG” reads 8690 fluorescence intensity (a.u.); that for “TCCCCTGGTAAATCTAGTCGTATTCTTCTTTTTTCGGGGACGGAGTCACCTAGTGCAG”, 11800 fluorescence intensity (a.u.).

For “CCATCATGAGCAACTTCACCAATCTCCACGTGATAATTTTCGGAGTCACCTAGTGCAG”, the binding signal is 8960 fluorescence intensity (a.u.). Take “GAGCTTGTTCCTGGTACATATACATATGCTGAGCTTTCCACGGAGTCACCTAGTGCAG”: the binding signal is 8810 fluorescence intensity (a.u.). The result for “GCTATTGTACCTGCTCTAATGTGTACTCCCTCCGTCCCAACGGAGTCACCTAGTGCAG” reads 8590 fluorescence intensity (a.u.); that for “TTTAACGTTTGACACCACTATACCGCAGACACTGACACTACGGAGTCACCTAGTGCAG”, 8210 fluorescence intensity (a.u.). Next, “ACAGATTTTTCAAGGTGATTGCCTCAACTTTTTTTTCCGTCGGAGTCACCTAGTGCAG”: 9120 fluorescence intensity (a.u.); “AGAAGCTTTTTTTTAATCGCTTTTTTGTCGGACTTTTTTCCGGAGTCACCTAGTGCAG”: 8380 fluorescence intensity (a.u.); “AATCTGTGCAATTGGTTATTTTTTAGCCTATATTTAATATCGGAGTCACCTAGTGCAG”: 8480 fluorescence intensity (a.u.). As to “ACTTCGTTGATTTTTTTAAACATGTTTGATCATTCGTCTTCGGAGTCACCTAGTGCAG”, the binding signal was 10700 fluorescence intensity (a.u.).

With “GTTATGAAAATGATTTTGGTTGTTTTCCGCTCGTTTTATCCGGAGTCACCTAGTGCAG”, the binding signal was 10000 fluorescence intensity (a.u.). Next, “ATTCATAAATTAATTTTCGTTGCTTTCTTCATTTTATTGTCGGAGTCACCTAGTGCAG”: 10100 fluorescence intensity (a.u.); “TGAGCACGGAAAACAAGTGACTTCTGTCTGTATCATGTCCCGGAGTCACCTAGTGCAG”: 8490 fluorescence intensity (a.u.); “CCGCTTCTTCTTCTTGTTTCCACCGAGCCCAAGCCGCCTTCGGAGTCACCTAGTGCAG”: 11100 fluorescence intensity (a.u.). In the case of “CTGCTACTGTGCTACTGTCCTACCGTGCTGTACCTTGCGTCGGAGTCACCTAGTGCAG”, the binding signal is 8060 fluorescence intensity (a.u.).

For the sequence “ATCTCTGTACCTTCACGCATCTTCAGTCCCAAGCAACCCCCGGAGTCACCTAGTGCAG”, the binding signal is 8050 fluorescence intensity (a.u.). Next, “GTTACTTTCAACTAATACTACGTGCACATTCACTTTTTCTCGGAGTCACCTAGTGCAG”: 8660 fluorescence intensity (a.u.). With “CATGTCATCAAGTGTACAAATTGCGTGTGTTTTTGTTTTTCGGAGTCACCTAGTGCAG”, the binding signal is 8290 fluorescence intensity (a.u.). For “CAAATTCAGCTGTTGACCGGACTCCTGAAGCCTCTTCTCCCGGAGTCACCTAGTGCAG”, the binding signal was 8820 fluorescence intensity (a.u.). Next, “GTTTTCTGCTGCCGACTTGGGTATTGACCTCCATATGCTCCGGAGTCACCTAGTGCAG”: 9060 fluorescence intensity (a.u.). For “GGGAGGGCAATCTCGTCCGTTCGATCTCGCGGTAATGGTCCGGAGTCACCTAGTGCAG”, the binding signal is 8360 fluorescence intensity (a.u.). Next, “TTGACTTTTGATCGACTCGCGTTGTATTTACCTGCCTACTCGGAGTCACCTAGTGCAG”: 12100 fluorescence intensity (a.u.). Turning to “CATCGACGCCCACGCCGCCGCACGCTAAACCCGCCCGCTCCGGAGTCACCTAGTGCAG”, the binding signal was 9810 fluorescence intensity (a.u.).

Values taken from publication PMC7819943, “Rice protein-binding microarrays: a tool to detect cis-acting elements near promoter regions in rice”.
